About 2,100 (0.66%) of roughly 320,000 compounds were called active. Inconclusive results, whose numbers are uncertain, are shown with a selection of clear calls. The call rests on the fitted dose curve; in most records, active means well fitted inhibition curve with a large enough effect in the signal ratio, with a control signal flat (not every such curve was filed as active); inconclusive means small, poorly fitted or top-dose-only effect, or effect the other way, or a change in a side signal; inactive means flat fitted curve, though single readings scatter; the % refers to the signal ratio. Where the call is inconclusive, the potency comes from a doubtful curve fit.
experiment: qHTS Assay for Lipid Storage Modulators in Drosophila S3 Cells; conditions: BODIPY lipid droplet fluorescence, 18-24 h, cells fed with added oleic acid; lipid storage change, negative = inhibition: at 46.1 µM (top of the series) unless noted
Method in brief: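 Drosophila S3 cells got compounds at several concentrations plus oleic acid (400 uM solution). Laser-scanning cytometry with 488 nm excitation read lipid droplets at 500-530 nm and cells at 575-640 nm. Percent activity was relative to 20 uM Triacsin C.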
On the % scale 0 is the no-effect control and ±100 the full control effect; potency means the concentration at half of the fitted maximal effect.

SMILES | lipid storage change, negative = inhibition | Potency
COc1ccc2nc(-c3ccc(N)cc3)[nH]c2c1 | inconclusive: -21.6% | –
COC(=O)c1ccc(CN2CCN(CCC(C)C)C(CCO)C2)cc1 (stereo not given) | inconclusive: -46.4% | –
CC(=O)Nc1ccc(S(=O)(=O)Nc2ccc(=O)n(Cc3ccc(Cl)c(Cl)c3)c2)cc1 | inconclusive: -27.1% | –
Cc1cccc(NC(=O)Nc2ccc3c(c2)N(C)C(=O)CS3)n1 | – | inconclusive: 5.17 µM [activator, full curve]
CCc1ccccc1NC(=O)c1ccc(-n2c(C)ccc2C)cc1 | – | inconclusive: 0.58 µM [rising, single point]
COc1ccc(C(=O)CCc2nc3ccccc3s2)cc1 | – | inconclusive: 3.26 µM [activator, single point]
COc1ccc(C(=O)NCC(=O)N/N=C/c2c(C)[nH]c3ccccc23)cc1OC | inconclusive: -1.16% | –
O=C(CN1CCOCC1)Nc1cc(Cl)ccc1Cl | – | inconclusive: 18.4 µM [activator, single point]
CCOC(=O)CCP(=O)(O)C(O)c1ccccc1 (stereo not given) | inconclusive: -8.29% | –
CCOc1ccc(N(C(=O)c2snc(C(N)=O)c2N)C(C)C(=O)NC2CCCCC2)cc1 (stereo not given) | inconclusive: 71.1% | –
CC(=O)c1ccc(OCC(=O)N(CCC2=CCCCC2)c2c(N)n(Cc3ccccc3)c(=O)[nH]c2=O)cc1 | inconclusive: -30.7% | –
Cc1ccc2cc(CN(Cc3cccs3)Cc3nnnn3CC3CCCO3)c(=O)[nH]c2c1C (stereo not given) | – | inconclusive: 1.64 µM [activator, partial curve]
Cc1ccc(NC(=O)CSc2nc(=O)n(CCN3CCOCC3)c3c2CCCC3)cc1 | – | inconclusive: 29.1 µM [activator, single point]
O=C(COc1ncnc2scc(-c3ccc(Cl)cc3)c12)NCc1ccco1 | inconclusive: 36.7% | –
COc1ccc(/C=N\NC(=O)c2sc(N)nc2C)cc1OC | – | inconclusive: 23.1 µM [falling, partial curve, poor fit]
CC(NC(=O)CN(C)CC(=O)Nc1ccccc1Br)c1ccccc1 (stereo not given) | inconclusive: 55% | –
CC(C)=C1C(=O)NN(c2ccc(C)c(Cl)c2)C1=O | inconclusive: 24.3% | –
CCOC(=O)Cn1nc(C)n(-c2c(C)cccc2C)c1=O | – | inconclusive: 20.6 µM [falling, single point]
Nc1cccc(-c2cnc3ccccc3n2)c1 | – | inconclusive: 29.1 µM [falling, single point]
CCC(OC(=O)c1nsc(Cl)c1Cl)C(=O)NCc1ccco1 (stereo not given) | – | inconclusive: 29.1 µM [falling, single point]
O=C(NC1CC1)C1C2C3C4CC5C3C5C4C12 (stereo not given) | inconclusive: -3.56% | –
Cc1cccc(OCC(=O)N2CCN(C(=O)c3ccc([N+](=O)[O-])cc3)CC2)c1 | inactive: 9.63% | –
O=C(OCCOc1ccc(F)cc1)c1ccc(S(=O)(=O)N2CCCC2)cc1 | – | inconclusive: 0.116 µM [falling, full curve, poor fit]
CC(=O)c1ccccc1NC(=O)CCCNC(=O)c1ccc(Cl)cc1 | inconclusive: -78.2% | –
O=C(CN(Cc1ccccc1F)S(=O)(=O)c1ccc(Cl)cc1)NCCCO | inconclusive: 11.1% | –

Fetched one by one from above:
SMILES | lipid storage change, negative = inhibition | Potency
Cc1cccc(OCC(=O)N2CCN(C(=O)c3ccc([N+](=O)[O-])cc3)CC2)c1 | inactive: 9.63% | –
Cc1ccc(NC(=O)CSc2nc(=O)n(CCN3CCOCC3)c3c2CCCC3)cc1 | – | inconclusive: 29.1 µM [activator, single point]

More structures:

SMILES | lipid storage change, negative = inhibition | Potency
NNC(=O)CSCc1nc(-c2ccc(Cl)cc2)cs1 | inconclusive: 5.42% | –
CC(=O)N1CCN(c2ccc(NC(=O)c3cc4ccccc4o3)cc2)CC1 | – | inconclusive: 0.651 µM [falling, full curve]
CCC(C)N1CC23C=CC(O2)C(C(=O)OCc2ccccc2)C3C1=O (stereo not given) | inconclusive: -5% | –
CON1C(=O)C(=O)N(OC)C(C)(C)C1C (stereo not given) | inconclusive: 33.6% | –
O=C1c2ccccc2C(=O)c2c1ccc1c(=O)n(C3CCCCC3)[nH]c21 | – | inconclusive: 14.6 µM [cytotoxic, partial curve]
CCC(C)N1CNc2c(c(=O)[nH]c(=S)n2-c2cccc(C)c2)C1 (stereo not given) | inconclusive: 4.03% | –
Cc1cc(C)n2nc(C(=O)Nc3ccc4c(c3)CCC4)nc2n1 | inconclusive: 3.41% | –
Cc1ccc(/C=N/NC(=O)Cn2cnc3c2c(=O)n(C)c(=O)n3C)s1 | inconclusive: 9.91% | –
CC(C)(C)NC(=O)NC(=O)CN1CCCc2ccccc21 | inactive: -1.35% | –
CN(C)CC(O)CN(c1ccccc1)c1ccccc1 (stereo not given) | inconclusive: 19.8% | –
O=C(CCN1C(=O)/C(=C/c2cccc(Br)c2)SC1=S)NNC(=O)c1cccnc1 | inconclusive: 17.3% | –
Cc1nc(Cl)sc1C(=O)Nc1ccc(C(C)(C)C)cc1 | – | active: 7.31 µM
COc1ccc(C2CC(c3ccc(OC)cc3)n3nc(NS(C)(=O)=O)nc3N2)cc1 (stereo not given) | inconclusive: -14.2% | –
O=C(CCc1nnc(-c2ccc3c(c2)OCO3)o1)NCCc1ccccc1F | inconclusive: -125% | –
COc1cc2ncnc(NCc3ccc(C)cc3)c2cc1OC | – | inconclusive: 20.6 µM [falling, single point]
O=C1ON=C(c2ccccc2)/C1=C/c1ccco1 | inconclusive: 4.87% | –
CCS(=O)(=O)N1CCN(c2nc(-c3ccccc3)cs2)CC1 | – | inconclusive: 6.51 µM [activator, single point]
COc1ccc(-c2cc(C(F)F)n3ncc(C(=O)N4CCN5CCCC5C4)c3n2)cc1 (stereo not given) | inconclusive: 12.1% | –
CCCNC(=O)c1n[nH]c(=O)c2ccccc12 | – | inconclusive: 0.103 µM [activator, full curve, poor fit]
NC12CC3CC(C1)CC(CC(=O)O)(C3)C2 | inconclusive: -38.3% | –
CCOCCCNC(=O)CN(c1cc([N+](=O)[O-])ccc1OC)S(C)(=O)=O | inconclusive: -11.6% | –
Cc1ccc(-n2nc3c(=O)n(CCCC(=O)N4CCCCC4)nc(C)c3c2C)cc1 | inconclusive: -32.5% | –
CC1CCCN(C(=O)C(C)Nc2cc(Cl)ccc2N2CCOCC2)C1 (stereo not given) | inconclusive: 24.3% | –
CC1=C(C(=O)Nc2cccc(C(=O)NCc3ccccc3C)c2)SCCO1 | inconclusive: 66.4% | –
Nc1cc(C(=O)OCC(=O)Nc2ccc(N3CCOCC3)cc2)ccc1Cl | – | inconclusive: 3.66 µM [falling, full curve, poor fit]

Grouped by structure, the compounds so far with a Cl atom
SMILES | lipid storage change, negative = inhibition | Potency
CC(=O)Nc1ccc(S(=O)(=O)Nc2ccc(=O)n(Cc3ccc(Cl)c(Cl)c3)c2)cc1 | inconclusive: -27.1% | –
O=C(CN1CCOCC1)Nc1cc(Cl)ccc1Cl | – | inconclusive: 18.4 µM [activator, single point]
O=C(COc1ncnc2scc(-c3ccc(Cl)cc3)c12)NCc1ccco1 | inconclusive: 36.7% | –
CC(C)=C1C(=O)NN(c2ccc(C)c(Cl)c2)C1=O | inconclusive: 24.3% | –
CCC(OC(=O)c1nsc(Cl)c1Cl)C(=O)NCc1ccco1 (stereo not given) | – | inconclusive: 29.1 µM [falling, single point]
CC(=O)c1ccccc1NC(=O)CCCNC(=O)c1ccc(Cl)cc1 | inconclusive: -78.2% | –
O=C(CN(Cc1ccccc1F)S(=O)(=O)c1ccc(Cl)cc1)NCCCO | inconclusive: 11.1% | –
NNC(=O)CSCc1nc(-c2ccc(Cl)cc2)cs1 | inconclusive: 5.42% | –
Cc1nc(Cl)sc1C(=O)Nc1ccc(C(C)(C)C)cc1 | – | active: 7.31 µM
CC1CCCN(C(=O)C(C)Nc2cc(Cl)ccc2N2CCOCC2)C1 (stereo not given) | inconclusive: 24.3% | –
Nc1cc(C(=O)OCC(=O)Nc2ccc(N3CCOCC3)cc2)ccc1Cl | – | inconclusive: 3.66 µM [falling, full curve, poor fit]

— PubChem BioAssay AID2685 (National Center for Advancing Translational Sciences (NCATS), 2010)
